{"source": "the supplement of paper PMC8728848", "binders": {"B1": {"name": "HopZSSI-T (Helicobacter pylori), B5Z6D0 (protein)", "chain": "MGSSHHHHHHSSGLVPRGSHMENLYFQGEDNGFFISAGYQIGEAAQMVKNTGELKKLSDTYENLSNLLTNFNNLNQAVTNASSPSEINAAIDNLKANTQGLTGEKTNSPAYQAVYLALNAAVGLWNVIAYNVQCGPGNSSQQSVTFEGQPGHNSSSINCNLTGYNNGVSGPLSIDNFKQLNQAYQVLQQALKQGVPVLNNTNQKIEVKVTTQTNGQSSKETTTTTTTNDAQTLLQEASKMIDVLTTNCPWVNHNPGQNGGAPWGLIRQECVSGFATEFSAVTSMIKNAQEIVTQAQSLNANQNNQNAPQDFNPYTSADRAFAQNMLNHAQAQAKILELADQMKKDLNTIPSQFITNYLAACRIDGTTPSQGVTNNTWGAGCAYVEETITALNNSLAHFGTQAEQIKQSELLARTILDFRGSLSTLNSTYNSITTTASNTPNSPFLKNLISQSTNPNNPGGLQAVYQVNQSAYSQLLSATQELGHNPFRRIGLISSQT"}}, "assay_in_all_cases": "glycan array binding signal (z-score within array); higher = stronger binding", "details_in_all_cases": "glycan notation: IUPAC condensed, linker removed", "key": {"[1]": {"molecular_target": "Man(a1-3)[Man(a1-6)]Man(a1-6)[Man(a1-3)]Man", "how_it_was_run": "(§1)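 The binding signal is a Z-score computed within each array and averaged over linkers. Arrays of the same protein sequence at different concentrations or buffers were also averaged together. Data originate from 3228 arrays in the Consortium for Functional Glycomics database, kept only where the protein sequence was available.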"}, "[2]": {"molecular_target": "Man(a1-3)[Man(a1-6)]Man(a1-6)[Man(a1-3)]Man(b1-4)GlcNAc(b1-4)GlcNAc", "how_it_was_run": "as §1"}, "[3]": {"molecular_target": "Man(a1-3)[Man(a1-6)]Man(b1-4)GlcNAc(b1-4)GlcNAc", "how_it_was_run": "as §1"}, "[4]": {"molecular_target": "Man(a1-3)[Man(a1-6)]Man(b1-4)GlcNAc(b1-4)[Fuc(a1-6)]GlcNAc", "how_it_was_run": "as §1"}, "[5]": {"molecular_target": "Man(a1-6)Man", "how_it_was_run": "as §1"}, "[6]": {"molecular_target": "Man(b1-4)GlcNAc", "how_it_was_run": "as §1"}, "[7]": {"molecular_target": "MurNAc(b1-4)GlcNAc", "how_it_was_run": "as §1"}, "[8]": {"molecular_target": "Neu5Ac(a2-3)Gal", "how_it_was_run": "as §1"}, "[9]": {"molecular_target": "Neu5Ac(a2-3)Gal(b1-3)GalNAc", "how_it_was_run": "as §1"}, "[10]": {"molecular_target": "Neu5Ac(a2-3)Gal(b1-3)GalNAc(b1-3)Gal(a1-4)Gal(b1-4)Glc", "how_it_was_run": "as §1"}, "[11]": {"molecular_target": "Neu5Ac(a2-3)Gal(b1-3)GalNAc(b1-4)[Neu5Ac(a2-3)]Gal(b1-4)Glc", "how_it_was_run": "as §1"}, "[12]": {"molecular_target": "Neu5Ac(a2-3)Gal(b1-3)GalNAc(b1-4)[Neu5Ac(a2-8)Neu5Ac(a2-3)]Gal(b1-4)Glc", "how_it_was_run": "as §1"}, "[13]": {"molecular_target": "Neu5Ac(a2-3)Gal(b1-3)GalNAc6S", "how_it_was_run": "as §1"}, "[14]": {"molecular_target": "Neu5Ac(a2-3)Gal(b1-3)GlcNAc", "how_it_was_run": "as §1"}, "[15]": {"molecular_target": "Neu5Ac(a2-3)Gal(b1-3)GlcNAc(b1-2)Man", "how_it_was_run": "as §1"}, "[16]": {"molecular_target": "Neu5Ac(a2-3)Gal(b1-3)GlcNAc(b1-2)Man(a1-3)[GlcNAc(b1-4)][Neu5Ac(a2-3)Gal(b1-3)GlcNAc(b1-2)Man(a1-6)]Man(b1-4)GlcNAc(b1-4)GlcNAc", "how_it_was_run": "as §1"}, "[17]": {"molecular_target": "Neu5Ac(a2-3)Gal(b1-3)GlcNAc(b1-2)Man(a1-3)[Neu5Ac(a2-3)Gal(b1-3)GlcNAc(b1-2)Man(a1-6)]Man(b1-4)GlcNAc(b1-4)GlcNAc", "how_it_was_run": "as §1"}, "[18]": {"molecular_target": "Neu5Ac(a2-3)Gal(b1-3)GlcNAc(b1-3)Gal(b1-3)GlcNAc", "how_it_was_run": "as §1"}, "[19]": {"molecular_target": "Neu5Ac(a2-3)Gal(b1-3)GlcNAc(b1-3)Gal(b1-4)GlcNAc", "how_it_was_run": "as §1"}, "[20]": {"molecular_target": "Neu5Ac(a2-3)Gal(b1-3)GlcNAc(b1-3)GalNAc", "how_it_was_run": "as §1"}, "[21]": {"molecular_target": "Neu5Ac(a2-3)Gal(b1-3)GlcNAc(b1-4)Gal(b1-4)Glc", "how_it_was_run": "as §1"}, "[22]": {"molecular_target": "Neu5Ac(a2-3)Gal(b1-3)GlcNAc(b1-6)GalNAc", "how_it_was_run": "as §1"}, "[23]": {"molecular_target": "Neu5Ac(a2-3)Gal(b1-3)GlcNAc6S", "how_it_was_run": "as §1"}, "[24]": {"molecular_target": "Neu5Ac(a2-3)Gal(b1-3)[Fuc(a1-4)]GlcNAc", "how_it_was_run": "as §1"}, "[25]": {"molecular_target": "Neu5Ac(a2-3)Gal(b1-3)[Fuc(a1-4)]GlcNAc(b1-3)Gal(b1-3)[Fuc(a1-4)]GlcNAc", "how_it_was_run": "as §1"}, "[26]": {"molecular_target": "Neu5Ac(a2-3)Gal(b1-3)[Fuc(a1-4)]GlcNAc(b1-3)Gal(b1-4)[Fuc(a1-3)]GlcNAc", "how_it_was_run": "as §1"}, "[27]": {"molecular_target": "Neu5Ac(a2-3)Gal(b1-3)[GlcNAc(b1-6)]GalNAc", "how_it_was_run": "as §1"}, "[28]": {"molecular_target": "Neu5Ac(a2-3)Gal(b1-3)[Neu5Ac(a2-6)]GalNAc", "how_it_was_run": "as §1"}, "[29]": {"molecular_target": "Neu5Ac(a2-3)Gal(b1-3)[Neu5Ac(a2-6)]GlcNAc(b1-3)[Fuc(a1-3)[Gal(b1-4)]GlcNAc(b1-6)]Gal(b1-4)Glc", "how_it_was_run": "as §1"}, "[30]": {"molecular_target": "Neu5Ac(a2-3)Gal(b1-3)]Neu5Ac(a2-3)Gal(b1-4)]GlcNAc", "how_it_was_run": "as §1"}, "[31]": {"molecular_target": "Neu5Ac(a2-3)Gal(b1-4)Glc", "how_it_was_run": "as §1"}, "[32]": {"molecular_target": "Neu5Ac(a2-3)Gal(b1-4)GlcNAc", "how_it_was_run": "as §1"}, "[33]": {"molecular_target": "Neu5Ac(a2-3)Gal(b1-4)GlcNAc(b1-2)Man", "how_it_was_run": "as §1"}, "[34]": {"molecular_target": "Neu5Ac(a2-3)Gal(b1-4)GlcNAc(b1-2)Man(a1-3)[GlcNAc(b1-4)][Neu5Ac(a2-3)Gal(b1-4)GlcNAc(b1-2)Man(a1-6)]Man(b1-4)GlcNAc(b1-4)GlcNAc", "how_it_was_run": "as §1"}, "[35]": {"molecular_target": "Neu5Ac(a2-3)Gal(b1-4)GlcNAc(b1-2)Man(a1-3)[Neu5Ac(a2-3)Gal(b1-4)GlcNAc(b1-2)Man(a1-6)]Man(b1-4)GlcNAc(b1-4)GlcNAc", "how_it_was_run": "as §1"}, "[36]": {"molecular_target": "Neu5Ac(a2-3)Gal(b1-4)GlcNAc(b1-2)Man(a1-3)[Neu5Ac(a2-3)Gal(b1-4)GlcNAc(b1-2)Man(a1-6)]Man(b1-4)GlcNAc(b1-4)[Fuc(a1-6)]GlcNAc", "how_it_was_run": "as §1"}, "[37]": {"molecular_target": "Neu5Ac(a2-3)Gal(b1-4)GlcNAc(b1-2)Man(a1-3)[Neu5Ac(a2-6)Gal(b1-4)GlcNAc(b1-2)Man(a1-6)]Man(b1-4)GlcNAc(b1-4)GlcNAc", "how_it_was_run": "as §1"}, "[38]": {"molecular_target": "Neu5Ac(a2-3)Gal(b1-4)GlcNAc(b1-2)[Neu5Ac(a2-3)Gal(b1-4)GlcNAc(b1-4)]Man(a1-3)[GlcNAc(b1-4)][Neu5Ac(a2-3)Gal(b1-4)GlcNAc(b1-2)[Neu5Ac(a2-3)Gal(b1-4)GlcNAc(b1-6)]Man(a1-6)]Man(b1-4)GlcNAc(b1-4)GlcNAc", "how_it_was_run": "as §1"}}, "note": "Some of the results follow.", "data": [{"binder": "B1", "values": [{"measurement": "glycan array binding signal (z-score)", "setting": "[1]", "value": -0.268}, {"measurement": "glycan array binding signal (z-score)", "setting": "[2]", "value": 0.762}, {"measurement": "glycan array binding signal (z-score)", "setting": "[3]", "value": -0.05}, {"measurement": "glycan array binding signal (z-score)", "setting": "[4]", "value": -0.579}, {"measurement": "glycan array binding signal (z-score)", "setting": "[5]", "value": 1.01}, {"measurement": "glycan array binding signal (z-score)", "setting": "[6]", "value": 0.94}, {"measurement": "glycan array binding signal (z-score)", "setting": "[7]", "value": -0.781}, {"measurement": "glycan array binding signal (z-score)", "setting": "[8]", "value": -0.232}, {"measurement": "glycan array binding signal (z-score)", "setting": "[9]", "value": -0.544}, {"measurement": "glycan array binding signal (z-score)", "setting": "[10]", "value": -0.102}, {"measurement": "glycan array binding signal (z-score)", "setting": "[11]", "value": -0.375}, {"measurement": "glycan array binding signal (z-score)", "setting": "[12]", "value": 0.208}, {"measurement": "glycan array binding signal (z-score)", "setting": "[13]", "value": 0.457}, {"measurement": "glycan array binding signal (z-score)", "setting": "[14]", "value": -0.085}, {"measurement": "glycan array binding signal (z-score)", "setting": "[15]", "value": 0.984}, {"measurement": "glycan array binding signal (z-score)", "setting": "[16]", "value": -0.416}, {"measurement": "glycan array binding signal (z-score)", "setting": "[17]", "value": -0.396}, {"measurement": "glycan array binding signal (z-score)", "setting": "[18]", "value": 0.034}, {"measurement": "glycan array binding signal (z-score)", "setting": "[19]", "value": 0.13}, {"measurement": "glycan array binding signal (z-score)", "setting": "[20]", "value": -0.249}, {"measurement": "glycan array binding signal (z-score)", "setting": "[21]", "value": 0.086}, {"measurement": "glycan array binding signal (z-score)", "setting": "[22]", "value": 0.672}, {"measurement": "glycan array binding signal (z-score)", "setting": "[23]", "value": 0.73}, {"measurement": "glycan array binding signal (z-score)", "setting": "[24]", "value": -0.514}, {"measurement": "glycan array binding signal (z-score)", "setting": "[25]", "value": -0.391}, {"measurement": "glycan array binding signal (z-score)", "setting": "[26]", "value": -0.238}, {"measurement": "glycan array binding signal (z-score)", "setting": "[27]", "value": -0.325}, {"measurement": "glycan array binding signal (z-score)", "setting": "[28]", "value": 0.098}, {"measurement": "glycan array binding signal (z-score)", "setting": "[29]", "value": -0.611}, {"measurement": "glycan array binding signal (z-score)", "setting": "[30]", "value": -0.452}, {"measurement": "glycan array binding signal (z-score)", "setting": "[31]", "value": -0.114}, {"measurement": "glycan array binding signal (z-score)", "setting": "[32]", "value": 0.173}, {"measurement": "glycan array binding signal (z-score)", "setting": "[33]", "value": 0.254}, {"measurement": "glycan array binding signal (z-score)", "setting": "[34]", "value": -0.08}, {"measurement": "glycan array binding signal (z-score)", "setting": "[35]", "value": 0.179}, {"measurement": "glycan array binding signal (z-score)", "setting": "[36]", "value": -0.036}, {"measurement": "glycan array binding signal (z-score)", "setting": "[37]", "value": -0.163}, {"measurement": "glycan array binding signal (z-score)", "setting": "[38]", "value": -0.433}]}]}
